This assay in a line: qHTS Assay for Lipid Storage Modulators in Drosophila S3 Cells.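 As to cell number change: cells counted by Cell Tracker Red CMTPX staining in the red channel.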 As to conditions: BODIPY lipid droplet fluorescence, 18-24 h; for cell number change: measured here: cell count max response, cells fed with added oleic acid. The gist of the method: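 Drosophila S3 cells loaded with oleic acid (400 uM, as added) and compounds at several concentrations; lipid droplets imaged by 488-nm laser-scanning cytometry, 500–530 nm intensity and object ratio to cell channel. Percent activity normalized to 20 uM Triacsin C.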
Background: qHTS replaces the single test concentration by a dilution series.

The mark [1] stands for this setting: measured here: lipid fluorescence (Fed channel) AC50, cells fed with added oleic acid.
[2] abbreviates: measured here: cell number channel AC50, cells fed with added oleic acid.

The other results are listed elsewhere or left out. Further columns of the screen follow, without active or inactive calls. Compounds called inactive in the main read-out are mostly missing here. The note in brackets gives the kind of curve behind each potency; many fits are weak.

By AC50 is commonly meant the concentration at which the activity in the assay is half-maximal. A lower AC50 goes with greater potency. Consider `Cc1ccc(Cn2c(C(=O)NCCCN3CCOCC3)cc3sccc32)cc1`, for which the cell number change is -25.3%. Moreover, under setting [1], the AC50 is 8.2 µM [falling, partial curve].
As to `O=C(Nc1nc2ccc(Br)cc2s1)c1ccco1`, the cell number change came to 4.38%. Moreover, the AC50 under setting [2] was 0.259 µM [rising, full curve, poor fit].
In the case of `CCN1CCN(C(CNS(=O)(=O)c2ccc(OC)c(C)c2)c2cccnc2)CC1` (configuration not stated), the cell number change was 19.4%.
As to `CCCN1Cc2cccc(C(=O)Nc3ccc4c(c3)OCCO4)c2C1=O`, the cell number change is -35.4%. Moreover, under setting [2], the AC50 was 18.4 µM [falling, single point].
On to `Cc1cc(C(=O)OCn2nnc3ccccc3c2=O)c(C)o1`, for which the cell number change stood at 49.4%. In addition, the AC50 under setting [2] is 7.31 µM [rising, partial curve, poor fit]. Also, under setting [1], the AC50 was 29.1 µM [rising, single point].
As for `COc1ccc(/C=N/Nc2nc(-c3ccc(Cl)cc3)cc(C(F)(F)F)n2)cc1OC`, the cell number change turned out to be 3.29%. The concentration at half-maximal activity (AC50) under setting [2] was 1.16 µM [rising, partial curve].
For `Cc1ccc(N2CC(C(=O)NCc3nnnn3-c3ccc(C)c(C)c3)CC2=O)cc1` (configuration not stated), the cell number change is 5.34%. Moreover, under setting [1], the AC50 was 29.1 µM [rising, single point].
In the case of `NC(=O)c1ccc(NC(=O)COC(=O)c2ccc3c(c2)OCO3)cc1`, the cell number change is -26.8%.
`CC(=O)Cn1ncc(N2CCCCC2)c(Cl)c1=O`: the AC50 reads like this: under setting [2], 6.51 µM [falling, single point]; under setting [1], 5.17 µM [falling, single point].
`COc1cc2cc(C(=O)N(C)C3CCS(=O)(=O)C3)[nH]c2cc1OC` (configuration not stated): the cell number change is -9.44%. Under setting [1], the AC50 is 29.1 µM [rising, single point].
As for `CC(OC(=O)Cc1ccccc1[N+](=O)[O-])C(=O)Nc1ccc(Cl)cn1` (configuration not stated), the cell number change is -34.1%.
On the same count and under the same terms, then `O=C(OC(C(=O)NC1CCCCC1)c1ccc(C(F)(F)F)cc1)c1ccco1` (configuration not stated), with -14.1%.
For `O=C(CCC1CCCN(C(=O)c2ccco2)C1)NCc1ccccc1F` (configuration not stated), the cell number change was -40.5%. For the same compound, the AC50 under setting [2] was 18.4 µM [falling, partial curve, poor fit]. In addition, under setting [1], the AC50 was 32.6 µM [falling, partial curve, poor fit].
With `CCCCOc1ccc(N(CC(=O)NCc2ccccc2)C(=O)c2csnn2)cc1`, the cell number change turned out to be 11.4%.
Consider `COc1ccc(-n2c(Cc3cc(=O)[nH]c(=O)[nH]3)nnc2SCC(=O)NC2CCCC2)cc1`, for which the cell number change was found to be 9.79%.
For `Cc1noc(C)c1CN1C(=O)NC2(CCc3ccccc3C2)C1=O` (configuration not stated), the cell number change is 0.849%. The AC50 under setting [1] is 3.66 µM [rising, single point].
As to `CCCCCCN(C(=O)CCCCCN1C(=O)NC(c2ccc(-c3ccccc3)cc2)C(C(=O)OCc2ccccc2)=C1C)C(C(=O)NCCCC)c1cccc(C(=O)OC)c1` (configuration not stated), the cell number change came to 12%. Further, the AC50 under setting [1] is 3.26 µM [rising, full curve, poor fit].
In the case of `COc1ccc(N2CCN(c3ccc(N)cc3C#N)CC2)cc1`, the AC50 under setting [1] is 6.51 µM [rising, single point].
In the case of `CCOC(=O)c1sc(C)c2c(=O)n(CC(=O)c3ccc(Br)cc3)nnc12`, the cell number change was -12.7%. Besides, under setting [1], the AC50 is 6.51 µM [falling, single point].
For `O=C(CCl)Oc1ccc2occ(C(=O)c3cccs3)c2c1`, the cell number change came to 5.83%.
As for `CCOC(=O)C1=C(COC(=O)CNC(=O)c2cc(OC)c(OC)c(OC)c2)NC(=O)NC1C` (configuration not stated), the cell number change was -10%.
Turning to `CC(C)NC(=O)c1cc(-c2cccs2)on1`, the cell number change was determined as 32.3%. Under setting [2], the AC50 is 16.4 µM [rising, single point]. Further, the AC50 under setting [1] was 0.116 µM [falling, full curve, poor fit].
In the case of `CCCCn1nnnc1SCC(=O)Nc1ccc2c(c1)OCCO2`, the cell number change is -7.54%.
For `CCOc1cccc2sc(N(CCCN(C)C)C(=O)c3ccc(C(=O)c4ccccc4)cc3)nc12`, the cell number change is -26.9%. The concentration at half-maximal activity (AC50) under setting [1] was 29.1 µM [falling, single point].
`CN(CC(=O)Nc1ccccc1F)Cc1cccs1`: the cell number change was -4.7%. In addition, the AC50 under setting [1] is 2.06 µM [rising, full curve].
Turning to `COc1ccc(CC(=O)N2CCc3cc(OC)c(OC)cc3C2)cc1`, the cell number change stood at 9.01%. In addition, the AC50 under setting [1] was 0.103 µM [falling, full curve, poor fit].
Turning to `CC(NC(=O)COc1ccc(Oc2ccccc2)cc1)C(=O)O` (configuration not stated), the cell number change was 3.13%. The AC50 under setting [1] was 0.461 µM [rising, single point].
On to `CN(C)CCN(C)Cc1c2ccccc2c(CN(C)CCN(C)C)c2ccccc12`, for which the cell number change was found to be 21.7%. Further, under setting [1], the AC50 is 23.1 µM [rising, single point].
Turning to `Cc1ccc([N+](=O)[O-])cc1NC(=S)NC(=O)CC(C)(C)C`, the cell number change worked out at 59.4%.
As to `C/C(=N\NC(=O)C1CC1)c1ccc(Cl)c(Cl)c1`, the cell number change was 79.4%. Also, the AC50 under setting [2] is 2.31 µM [rising, full curve]. Also, the AC50 under setting [1] is 3.26 µM [rising, full curve].
For the compound `CC(Sc1ccc(S(=O)(=O)N2CCN(C)CC2)cn1)C(=O)NC1(C#N)CCCCC1` (configuration not stated), the cell number change was -17.3%.
In the case of `Cc1cc(C)cc(C(=O)N2CCC(C(N)=O)CC2)c1`, the AC50 is 5.8 µM [falling, single point] under setting [2] and 4.61 µM [falling, partial curve] under setting [1].
`O=C(O)c1cccc(Cl)n1`: the cell number change came to 12%.
Turning to `CC(CC(=O)NNC(=O)c1ccncc1)c1ccccc1` (configuration not stated), the cell number change turned out to be 4.49%. Also, the concentration at half-maximal activity (AC50) under setting [1] was 0.0058 µM [rising, full curve].
Regarding `O=C(N/N=C\c1cc(Br)cs1)c1ccncc1`, the cell number change is 8.43%. Besides, the AC50 under setting [1] is 3.26 µM [rising, full curve].
Consider `CC(C)N(Cc1ccccc1)C(=S)NCc1ccccc1`, for which the cell number change came to 74.6%. The half-maximal activity concentration (AC50) under setting [2] is 20.6 µM [rising, single point].
Take `CCOC(=O)CNc1ccc(C(=O)OCC)cc1[N+](=O)[O-]`: the cell number change was 7.31%.
On to `CN(CC(=O)Nc1ccc(N2CCOCC2)cc1)Cc1c(O)ccc2ccccc12`, for which the cell number change is -32.4%. The AC50 under setting [2] is 32.6 µM [falling, single point].
Regarding `O=C(N/N=C/C=C/c1ccco1)c1cnccn1`, the cell number change was -15.9%.
On the same count and under the same terms, the same measure for `O=C(Nc1cc(C(F)(F)F)ccc1N1CCOCC1)c1c(F)c(F)c(F)c(F)c1F`: -14.1%.
In the case of `Cc1[nH]c2ccccc2c1/C=C(\C#N)C(=O)NC(C)c1ccccc1` (configuration not stated), the concentration at half-maximal activity (AC50) under setting [1] was 0.731 µM [falling, single point].
With `CC(=O)c1nc(-c2ccccc2)sc1C`, the cell number change is 11.8%.
On to `O=C(c1ccccc1)N1CCN(C2c3cccc4cccc(c34)C2NS(=O)(=O)c2ccccc2)CC1` (configuration not stated), for which the cell number change is -19.8%. Also, the AC50 under setting [1] was 0.116 µM [falling, full curve, poor fit].
With `Cc1ccc(C(=O)NCC(=O)OCC(=O)Nc2ccc3[nH]c(=O)[nH]c3c2)cc1`, the cell number change came out at 16.8%. Besides, the concentration at half-maximal activity (AC50) under setting [1] was 20.6 µM [rising, single point].
For `COc1ccccc1NS(=O)(=O)c1cc(NC(=O)c2ccc(Cl)nc2)ccc1Cl`, the cell number change stood at 16.2%.
As to `COCC(=O)Nc1c(C(=O)Nc2ccccc2OC)oc2ccccc12`, under setting [1], the AC50 is 6.51 µM [rising, partial curve, poor fit].
For `Clc1ccc(-c2cc(CN3CCOCC3)no2)cc1`, the cell number change was found to be 21.6%. For the same compound, the AC50 under setting [1] was 14.6 µM [rising, partial curve, poor fit].
Regarding `CN(C)CCn1c2c(c(SCC(=O)Nc3ccccc3C(F)(F)F)nc1=O)CCCC2`, the cell number change is -36%. Under setting [2], the concentration at half-maximal activity (AC50) is 9.2 µM [falling, partial curve]. Moreover, the AC50 under setting [1] is 16.4 µM [falling, partial curve].
As for `Cc1ccc(C(=O)c2ccc([N+](=O)[O-])cc2)cc1C`, the cell number change was found to be 12.5%. The AC50 under setting [1] was 3.26 µM [rising, partial curve].
Turning to `Cc1cc(N2CCN(c3nc(-c4ccc([N+](=O)[O-])cc4)cs3)CC2)c2ccccc2n1`, the cell number change was -46.2%. The AC50 under setting [2] was 29.1 µM [falling, single point]. Further, under setting [1], the AC50 is 20.6 µM [falling, single point].
Regarding `O=C(NCc1ccc(Cl)cc1)C(=O)NCC1OCCN1S(=O)(=O)c1cc(F)ccc1F` (configuration not stated), the cell number change was -16.8%.
On to `O=C(c1cccc(S(=O)(=O)N2CCOCC2)c1)N1CCN(c2ccc(F)cc2)CC1`, for which the cell number change was 20.1%. Further, the AC50 under setting [1] is 0.184 µM [falling, full curve, poor fit].
Take `O=C(CCNC(=O)c1ccc([N+](=O)[O-])cc1)Nc1ccc(S(=O)(=O)N2CCOCC2)cc1`: the cell number change turned out to be 43.5%. Further, the AC50 under setting [2] is 18.4 µM [rising, single point].
`CCC(CO)NC(=O)c1cccc(S(=O)(=O)N2c3ccccc3CC2C)c1` (configuration not stated): the cell number change came to 7.85%. Besides, the AC50 under setting [1] was 6.51 µM [falling, single point].
`N=C1/C(=C/c2cccn2-c2cccc([N+](=O)[O-])c2)C(=O)N=C2SC=CN12`: the cell number change turned out to be 14.8%. For the same compound, the AC50 under setting [1] is 1.16 µM [rising, partial curve, poor fit].
As to `CCCCCCCn1c(=O)c(C(=O)OC)c(N)c2ccccc21`, the cell number change was -70%. For the same compound, the AC50 under setting [2] is 3.26 µM [falling, full curve]. Besides, the AC50 under setting [1] is 2.59 µM [falling, full curve].
In the case of `Cc1scc(C(=O)NCc2ccco2)c1-c1ccccc1`, the cell number change is -32%. For the same compound, under setting [2], the AC50 was 32.6 µM [falling, single point].
Take `Cc1ccc(N(C(=O)c2ccco2)C(C(=O)NC2CCCC2)c2ccco2)c(C)c1` (configuration not stated): the AC50 under setting [1] was 6.51 µM [rising, partial curve, poor fit].
As to `COc1ccc(CNC(=O)N2CCN(S(=O)(=O)c3ccccc3)CC2)cc1`, the cell number change was 36.2%. Under setting [2], the AC50 was 41.1 µM [rising, partial curve, poor fit].
Turning to `Cc1nnnn1/C(=C\c1ccccc1)C(=O)OCC(=O)N1CC2(C)CC1CC(C)(C)C2` (configuration not stated), the AC50 under setting [1] was 5.17 µM [falling, full curve].
In the case of `O=C(CCN1C(=O)c2ccccc2C1=O)Nc1ccc(S(=O)(=O)NC2=NCCCCC2)cc1`, the cell number change was 0.822%.
As to `O=C(CNC(=O)c1cccc(Cl)c1)NCC(c1cccs1)N1CCOCC1` (configuration not stated), the cell number change was 11%. Besides, under setting [1], the AC50 was 0.058 µM [falling, full curve, poor fit].
With `O=C(NC1CC1)c1cc(Cl)ccc1[N+](=O)[O-]`, the cell number change was -36.4%. In addition, the AC50 under setting [2] is 18.4 µM [falling, single point]. In addition, the AC50 under setting [1] was 23.1 µM [falling, partial curve].
On to `CCn1c(SCC(=O)Nc2nc(-c3ccc(C)cc3)cs2)nnc1-c1ccccc1O`, for which the cell number change was -35.6%. In addition, the concentration at half-maximal activity (AC50) under setting [1] was 2.59 µM [rising, single point].

These data come from PubChem BioAssay AID2685 (National Center for Advancing Translational Sciences (NCATS), 2010).
